According to publication doi:10.1101/871988:
These are yes or no findings as the source states them, for the method shown. In cells and extracts the contact can be indirect. A result given as binding can be weak or reduced; the word gives no strength.

Target: T1, scavenger receptor B1 (SRB1) on Huh-7 cells (human (endogenous in Huh-7)) (UniProt Q8WTV0)
T1 sequence: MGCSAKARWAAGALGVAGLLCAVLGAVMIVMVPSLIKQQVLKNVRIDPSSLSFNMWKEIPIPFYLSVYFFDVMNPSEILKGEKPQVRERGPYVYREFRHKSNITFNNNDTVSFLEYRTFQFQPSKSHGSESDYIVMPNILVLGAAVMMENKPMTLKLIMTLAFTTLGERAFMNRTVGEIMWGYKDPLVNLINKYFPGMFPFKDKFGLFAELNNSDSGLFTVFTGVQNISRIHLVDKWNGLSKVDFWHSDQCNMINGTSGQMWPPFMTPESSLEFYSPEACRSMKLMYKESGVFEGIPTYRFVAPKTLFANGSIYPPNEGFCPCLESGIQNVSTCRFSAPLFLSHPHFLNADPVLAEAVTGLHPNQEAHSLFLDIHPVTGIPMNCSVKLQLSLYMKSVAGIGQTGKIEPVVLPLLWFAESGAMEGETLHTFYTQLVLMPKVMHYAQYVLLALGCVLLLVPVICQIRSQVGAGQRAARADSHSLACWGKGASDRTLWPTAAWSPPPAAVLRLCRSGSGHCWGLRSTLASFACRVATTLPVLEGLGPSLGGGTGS
Assay: proximity ligation

Row | Substance | binding
1 | recombinant Zika virus non-structural protein 1 (ZIKV NS1) | binds
2 | recombinant dengue virus non-structural protein 1 (DENV NS1) | binds
